Results taken from article PMC4860834.
No constants are given. Whether binding was seen depends on the method and setting. In cells and extracts the contact can be indirect. Some entries that bind do so weakly or less than the wild type. For part of these data: Tags and fused reporters may be left off the sequences shown. Each block holds one binder with its values, some of them ahead of it.

What was measured:
[1] = biological target: T1, dysbindin-1A protein (in transfected cells, crosslinking experiment) (human), Q96EV8; test: cross-linking; crosslinking experiments in transfected cells; details: remark: other sources report otherwise
T1 chain: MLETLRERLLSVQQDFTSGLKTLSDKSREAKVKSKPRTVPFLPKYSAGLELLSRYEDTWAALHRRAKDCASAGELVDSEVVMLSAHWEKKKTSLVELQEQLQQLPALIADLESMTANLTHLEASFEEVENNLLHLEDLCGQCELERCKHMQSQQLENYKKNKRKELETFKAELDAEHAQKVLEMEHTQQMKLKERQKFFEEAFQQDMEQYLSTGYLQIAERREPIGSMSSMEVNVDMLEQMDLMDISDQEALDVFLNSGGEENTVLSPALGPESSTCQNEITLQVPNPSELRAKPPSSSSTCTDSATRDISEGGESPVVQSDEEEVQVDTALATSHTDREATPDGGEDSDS

[2] = biological target: T2, His-tagged dysbindin-1A (human), Q96EV8; test: pull-down; His-tag pull-down: purified His-tagged bait (His-dysbindin-1A or His-Smt3) incubated with cell lysates holding HA-tagged dysbindin-1A or -1B; HA-tagged proteins detected in the pull-down fraction; only the target purified; details: remark: other sources report otherwise
T2 chain: T1 chain

[3] = biological target: His-Smt3 [SUMO: Q12306]; test: as above

binding [1]: binds
B1: dysbindin-1A protein (in transfected cells, crosslinking experiment), Q96EV8-1 1-351 (protein)
chain: T1 chain

binding [2]: binds
B2: HA-tagged dysbindin-1A, Q96EV8-1 1-351 (protein)
chain: T1 chain

binding [3]: no binding
B3: HA-tagged dysbindin-1A (protein, UniProt Q96EV8-1 1-351)
chain: T1 chain
